Data published in patent publication WO2017061602A1 (dated 2017).

Molecular target: cynomolgus monkey CD147 on cells (HSC-F) (cynomolgus monkey)
Assay: FACS on HSC-F cells

| binding | Binder |
| --- | --- |
| binds | PPAT-082-01 (antibody, V domains shown) VH: QVQLQQSGAELMKPGASVKISCKTSGYTFSTYWIEWVKQRPGHGPEWIGEFLPGSGSTNFNEKFKGKATFTADKSSDTAYMQLSSLTSEDSAVYYCTRSGGNFGARFASWGQGTLVTVSA VL: DIVMTQAAPSVPVTPGESVSISCRSSKSLLSNNGNTYLYWFLQRPGQSPHLLIYRMSSLASGVPDRFSGSGSGTAFTLRISRVEAEDVGVYYCMQHLEYPFTFGGGTKLEIK |
| binds | cPPAT-082-01 (antibody, human IgG1, V domains shown) VH: QVQLQQSGAELMKPGASVKISCKTSGYTFSTYWIEWVKQRPGHGPEWIGEFLPGSGSTNFNEKFKGKATFTADKSSDTAYMQLSSLTSEDSAVYYCTRSGGNFGARFASWGQGTLVTVSA VL: DIVMTQAAPSVPVTPGESVSISCRSSKSLLSNNGNTYLYWFLQRPGQSPHLLIYRMSSLASGVPDRFSGSGSGTAFTLRISRVEAEDVGVYYCMQHLEYPFTFGGGTKLEIK |
| binds | PPAT-082-02 (antibody, V domains shown) VH: EVQLVESGGDLVKPGGSLKLSCAASGFTFSSYGMSWVRQTPDKRLEWVATISSGGSYTYYQDSIKGRFTISRDNAKNTLYLQMSSLKSEDTAMYYCSIGDWADYWGQGTTLTVSS VL: DIKMTQSPSSMYASLGERVTITCKASQDINSYLSWFQQKPGKSPKTLIHRANRLVAGVPSRFSGSGSGQVYSLTISSLEYEDMGIYFCLQYDEFPLTFGAGTKLELN |
| binds | cPPAT-082-02 (antibody, human IgG1, V domains shown) VH: EVQLVESGGDLVKPGGSLKLSCAASGFTFSSYGMSWVRQTPDKRLEWVATISSGGSYTYYQDSIKGRFTISRDNAKNTLYLQMSSLKSEDTAMYYCSIGDWADYWGQGTTLTVSS VL: DIKMTQSPSSMYASLGERVTITCKASQDINSYLSWFQQKPGKSPKTLIHRANRLVAGVPSRFSGSGSGQVYSLTISSLEYEDMGIYFCLQYDEFPLTFGAGTKLELN |

These are yes or no findings as the source states them, for the method shown. Binding calls can cover weak binding; strength is not graded here.
